Assay results reported in paper PMC1800349.
Results are given in words; binding and its absence hold for the method and conditions named. Binding seen in cells or lysates may run through a third protein. Binding calls can cover weak binding; strength is not graded here. Sequences can lack the tags named with a protein.

By UniProt entry, the sequences of proteins in these tests, tags left out. Where a name states a change or a piece, a line headed by the entry shows the natural chain unless it says otherwise.
UniProt Q924X6: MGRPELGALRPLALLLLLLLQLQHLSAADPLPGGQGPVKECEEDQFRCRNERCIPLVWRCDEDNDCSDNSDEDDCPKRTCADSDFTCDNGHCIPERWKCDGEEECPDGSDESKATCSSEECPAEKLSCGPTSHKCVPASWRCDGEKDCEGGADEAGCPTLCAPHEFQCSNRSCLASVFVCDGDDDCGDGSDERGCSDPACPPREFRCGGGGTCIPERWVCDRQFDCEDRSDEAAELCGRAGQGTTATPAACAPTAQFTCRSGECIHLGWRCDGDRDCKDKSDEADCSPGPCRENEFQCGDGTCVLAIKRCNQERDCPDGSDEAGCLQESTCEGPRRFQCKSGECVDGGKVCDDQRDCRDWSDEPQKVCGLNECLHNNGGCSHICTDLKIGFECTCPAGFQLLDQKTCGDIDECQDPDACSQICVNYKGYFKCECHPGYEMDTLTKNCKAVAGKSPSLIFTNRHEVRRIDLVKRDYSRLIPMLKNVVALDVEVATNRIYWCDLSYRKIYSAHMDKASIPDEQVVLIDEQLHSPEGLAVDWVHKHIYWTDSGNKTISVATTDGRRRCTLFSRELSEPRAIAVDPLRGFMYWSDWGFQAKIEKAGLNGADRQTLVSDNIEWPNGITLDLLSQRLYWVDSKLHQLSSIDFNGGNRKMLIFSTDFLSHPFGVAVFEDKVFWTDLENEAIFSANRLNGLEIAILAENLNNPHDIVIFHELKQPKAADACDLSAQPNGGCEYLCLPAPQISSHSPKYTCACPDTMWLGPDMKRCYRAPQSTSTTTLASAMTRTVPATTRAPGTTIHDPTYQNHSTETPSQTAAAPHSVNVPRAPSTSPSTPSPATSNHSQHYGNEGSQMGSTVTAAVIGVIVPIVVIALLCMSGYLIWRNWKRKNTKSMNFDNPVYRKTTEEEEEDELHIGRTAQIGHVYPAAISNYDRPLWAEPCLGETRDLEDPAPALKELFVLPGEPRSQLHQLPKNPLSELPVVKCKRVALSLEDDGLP

Target: FLAG-ApoER2(R774L) (mouse) (UniProt Q924X6)
Experiment: co-IP; FLAG-tagged ApoER2 co-expressed in COS7 cells with GFP-tagged Pafah1b α subunits; immunoprecipitated with FLAG antibodies, blotted with GFP antibodies

binding	Binder
binds	GFP-tagged Pafah1b2 (protein, UniProt Q61206 1-229) MSQGDSNPAAIPHAAEDIQGDDRWMSQHNRFVLDCKDKEPDVLFVGDSMVQLMQQYEIWRELFSPLHALNFGIGGDTTRHVLWRLKNGELENIKPKVIVVWVGTNNHENTAEEVAGGIEAIVQLINTRQPQAKIIVLGLLPRGEKPNPLRQKNAKVNQLLKVSLPKLANVQLLDIDGGFVHSDGAISCHDMFDFLHLTGGGYAKICKPLHELIMQLLEETPEEKQTTIA
binds	GFP-tagged Pafah1b3 (protein, UniProt Q61205 1-232) MSGEGENPASKPTPVQDVQGDGRWMSLHHRFVADSKDKEPEVVFIGDSLVQLMHQCEIWRELFSPLHALNFGIGGDSTQHVLWRLENGELEHIRPKIVVVWVGTNNHSHTAEQVTGGIKAIVQLVNKLQPQARVVVLGLLPRGQHPNPLREKNRQVNELVRAALAGYPRAHFLDADPGFVHSDGTISHHDMYDYLHLSRLGYTPVCRALHSLLLRLLAQDQGQGIPLPETAS
